Data published in the supplement of paper PMC12819154, “High-throughput peptide-centric local stability assay extends protein–ligand identification to membrane proteins, tissues and bacteria” (Nature Structural & Molecular Biology, 2025).
The list shows a part of the results. Most entries show no effect beyond the scatter of the controls.

The chains behind the UniProt entries cited, without tags or fusion partners. Where a name states a change or a piece, a line headed by the entry shows the natural chain unless it says otherwise.
UniProt Q8C163: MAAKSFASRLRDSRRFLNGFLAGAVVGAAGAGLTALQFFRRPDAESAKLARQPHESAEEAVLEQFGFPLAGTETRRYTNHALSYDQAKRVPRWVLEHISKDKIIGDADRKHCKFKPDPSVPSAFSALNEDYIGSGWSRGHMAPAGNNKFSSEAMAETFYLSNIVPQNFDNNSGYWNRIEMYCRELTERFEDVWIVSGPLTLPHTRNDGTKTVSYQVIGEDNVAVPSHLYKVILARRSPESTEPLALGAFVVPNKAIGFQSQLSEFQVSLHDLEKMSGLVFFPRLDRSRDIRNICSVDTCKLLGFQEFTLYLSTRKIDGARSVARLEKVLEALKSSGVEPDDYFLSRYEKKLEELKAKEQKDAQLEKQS
UniProt Q8C2S0: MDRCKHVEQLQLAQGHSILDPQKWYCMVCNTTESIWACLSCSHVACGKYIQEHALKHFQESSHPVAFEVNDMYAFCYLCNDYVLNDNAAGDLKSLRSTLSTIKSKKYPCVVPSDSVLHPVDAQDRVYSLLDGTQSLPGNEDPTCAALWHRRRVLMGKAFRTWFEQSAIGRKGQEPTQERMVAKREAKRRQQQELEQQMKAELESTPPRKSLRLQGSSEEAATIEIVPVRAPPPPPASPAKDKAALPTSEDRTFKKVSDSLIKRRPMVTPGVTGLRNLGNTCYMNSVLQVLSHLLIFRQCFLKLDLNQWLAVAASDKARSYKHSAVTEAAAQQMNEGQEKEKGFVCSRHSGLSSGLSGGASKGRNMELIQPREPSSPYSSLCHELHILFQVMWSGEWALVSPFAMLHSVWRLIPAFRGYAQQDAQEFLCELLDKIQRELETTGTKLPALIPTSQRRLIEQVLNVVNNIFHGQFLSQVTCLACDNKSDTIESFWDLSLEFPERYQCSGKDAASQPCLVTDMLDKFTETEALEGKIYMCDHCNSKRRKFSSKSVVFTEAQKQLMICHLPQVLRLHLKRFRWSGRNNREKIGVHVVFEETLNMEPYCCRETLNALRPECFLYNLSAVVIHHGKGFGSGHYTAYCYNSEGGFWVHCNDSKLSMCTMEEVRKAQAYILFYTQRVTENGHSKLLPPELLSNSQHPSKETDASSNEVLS
UniProt Q8C5L3, whole entry: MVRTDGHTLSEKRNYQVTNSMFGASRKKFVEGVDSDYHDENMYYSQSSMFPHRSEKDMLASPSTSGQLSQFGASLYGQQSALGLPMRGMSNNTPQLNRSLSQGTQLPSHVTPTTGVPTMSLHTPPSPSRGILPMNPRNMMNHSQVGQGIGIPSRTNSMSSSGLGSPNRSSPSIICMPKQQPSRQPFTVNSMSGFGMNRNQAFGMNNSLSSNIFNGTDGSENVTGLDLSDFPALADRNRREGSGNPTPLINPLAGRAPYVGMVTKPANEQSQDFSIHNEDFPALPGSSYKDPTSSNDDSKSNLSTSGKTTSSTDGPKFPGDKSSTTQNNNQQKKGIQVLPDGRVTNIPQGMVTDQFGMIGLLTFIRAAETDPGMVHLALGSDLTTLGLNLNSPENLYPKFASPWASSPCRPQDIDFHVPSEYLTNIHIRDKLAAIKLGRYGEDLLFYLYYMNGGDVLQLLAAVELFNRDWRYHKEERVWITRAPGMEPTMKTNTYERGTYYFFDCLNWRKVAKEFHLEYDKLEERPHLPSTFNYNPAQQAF
UniProt Q8BXL7: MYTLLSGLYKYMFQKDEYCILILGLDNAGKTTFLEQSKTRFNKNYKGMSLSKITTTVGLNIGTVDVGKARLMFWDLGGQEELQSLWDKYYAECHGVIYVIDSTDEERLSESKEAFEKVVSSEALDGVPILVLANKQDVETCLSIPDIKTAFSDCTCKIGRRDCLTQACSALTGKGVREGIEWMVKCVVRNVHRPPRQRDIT
UniProt Q8BWA8: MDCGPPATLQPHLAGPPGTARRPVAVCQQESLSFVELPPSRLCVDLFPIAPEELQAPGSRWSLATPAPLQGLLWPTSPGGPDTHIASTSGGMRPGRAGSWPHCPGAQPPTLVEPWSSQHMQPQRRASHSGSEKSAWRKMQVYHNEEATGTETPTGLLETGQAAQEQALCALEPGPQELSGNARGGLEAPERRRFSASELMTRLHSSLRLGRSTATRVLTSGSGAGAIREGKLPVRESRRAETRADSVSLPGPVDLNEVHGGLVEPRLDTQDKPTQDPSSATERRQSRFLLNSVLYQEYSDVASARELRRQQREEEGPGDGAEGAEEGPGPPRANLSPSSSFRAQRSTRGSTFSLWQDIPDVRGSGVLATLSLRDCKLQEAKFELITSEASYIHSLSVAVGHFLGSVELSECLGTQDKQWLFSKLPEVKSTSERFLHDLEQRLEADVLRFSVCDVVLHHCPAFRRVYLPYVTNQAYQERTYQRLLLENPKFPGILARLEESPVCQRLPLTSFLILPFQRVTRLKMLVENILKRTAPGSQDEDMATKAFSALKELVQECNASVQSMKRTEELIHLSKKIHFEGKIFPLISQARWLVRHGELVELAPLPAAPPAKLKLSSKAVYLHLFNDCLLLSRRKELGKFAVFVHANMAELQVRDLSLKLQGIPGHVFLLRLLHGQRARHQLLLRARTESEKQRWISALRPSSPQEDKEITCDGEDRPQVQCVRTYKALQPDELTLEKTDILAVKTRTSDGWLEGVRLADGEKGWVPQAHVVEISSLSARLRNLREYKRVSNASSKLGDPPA
UniProt Q8C4B4: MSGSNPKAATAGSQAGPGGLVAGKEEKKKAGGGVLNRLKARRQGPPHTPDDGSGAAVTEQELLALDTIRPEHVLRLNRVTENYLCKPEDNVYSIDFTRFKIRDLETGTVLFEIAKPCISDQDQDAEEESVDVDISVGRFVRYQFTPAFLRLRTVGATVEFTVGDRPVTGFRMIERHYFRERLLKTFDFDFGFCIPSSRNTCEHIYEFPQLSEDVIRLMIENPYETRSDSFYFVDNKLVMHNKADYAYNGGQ
UniProt Q8BXK9: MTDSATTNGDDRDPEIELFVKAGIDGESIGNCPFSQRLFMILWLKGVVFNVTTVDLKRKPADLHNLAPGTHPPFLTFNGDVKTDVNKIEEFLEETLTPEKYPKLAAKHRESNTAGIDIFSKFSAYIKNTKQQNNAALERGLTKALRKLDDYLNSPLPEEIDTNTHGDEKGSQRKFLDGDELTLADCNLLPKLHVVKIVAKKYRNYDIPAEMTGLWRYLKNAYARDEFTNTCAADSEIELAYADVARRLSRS
UniProt Q8C3X4: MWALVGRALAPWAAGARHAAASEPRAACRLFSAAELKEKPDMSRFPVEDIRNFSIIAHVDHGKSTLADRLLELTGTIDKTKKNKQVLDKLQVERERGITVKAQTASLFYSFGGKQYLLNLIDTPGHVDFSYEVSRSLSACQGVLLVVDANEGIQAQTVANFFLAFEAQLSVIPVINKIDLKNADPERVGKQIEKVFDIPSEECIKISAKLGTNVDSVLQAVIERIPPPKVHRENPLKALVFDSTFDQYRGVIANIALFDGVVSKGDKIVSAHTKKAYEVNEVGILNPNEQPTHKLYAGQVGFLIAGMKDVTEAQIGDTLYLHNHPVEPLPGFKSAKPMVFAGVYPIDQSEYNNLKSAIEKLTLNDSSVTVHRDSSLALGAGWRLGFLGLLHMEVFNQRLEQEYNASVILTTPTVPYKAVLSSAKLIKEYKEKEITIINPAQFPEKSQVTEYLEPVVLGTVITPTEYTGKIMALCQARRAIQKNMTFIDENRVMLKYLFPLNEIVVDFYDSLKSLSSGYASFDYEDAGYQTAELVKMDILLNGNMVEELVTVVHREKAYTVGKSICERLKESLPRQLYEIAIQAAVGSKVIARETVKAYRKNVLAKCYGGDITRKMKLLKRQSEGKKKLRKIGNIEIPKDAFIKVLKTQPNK
UniProt Q8BXL9: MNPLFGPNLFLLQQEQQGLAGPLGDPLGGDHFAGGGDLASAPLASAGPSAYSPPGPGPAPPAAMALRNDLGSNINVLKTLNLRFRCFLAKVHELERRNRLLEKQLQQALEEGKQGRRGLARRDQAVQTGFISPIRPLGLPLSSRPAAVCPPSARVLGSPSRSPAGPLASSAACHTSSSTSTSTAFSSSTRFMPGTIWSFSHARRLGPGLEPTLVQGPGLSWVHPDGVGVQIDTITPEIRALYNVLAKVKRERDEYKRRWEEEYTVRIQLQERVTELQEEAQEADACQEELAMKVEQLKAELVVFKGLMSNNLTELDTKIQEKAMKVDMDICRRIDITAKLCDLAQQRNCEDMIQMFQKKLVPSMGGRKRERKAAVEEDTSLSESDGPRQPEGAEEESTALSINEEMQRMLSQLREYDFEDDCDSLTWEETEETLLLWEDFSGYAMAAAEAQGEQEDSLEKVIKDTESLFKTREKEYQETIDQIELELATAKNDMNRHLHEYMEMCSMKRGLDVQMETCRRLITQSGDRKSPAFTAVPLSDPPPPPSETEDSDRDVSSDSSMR
UniProt Q8BWG8: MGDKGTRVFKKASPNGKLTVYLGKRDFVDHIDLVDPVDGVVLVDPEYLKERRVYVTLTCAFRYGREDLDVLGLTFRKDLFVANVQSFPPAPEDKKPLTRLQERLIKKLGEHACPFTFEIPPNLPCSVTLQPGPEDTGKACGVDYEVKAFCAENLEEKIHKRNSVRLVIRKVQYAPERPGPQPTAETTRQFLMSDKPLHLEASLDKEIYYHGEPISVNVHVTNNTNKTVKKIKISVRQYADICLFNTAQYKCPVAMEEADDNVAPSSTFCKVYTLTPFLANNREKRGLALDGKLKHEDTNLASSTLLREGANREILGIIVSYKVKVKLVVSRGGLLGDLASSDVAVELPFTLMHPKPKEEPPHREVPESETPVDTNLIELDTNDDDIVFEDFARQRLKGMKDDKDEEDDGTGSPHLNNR
UniProt Q8BWJ3: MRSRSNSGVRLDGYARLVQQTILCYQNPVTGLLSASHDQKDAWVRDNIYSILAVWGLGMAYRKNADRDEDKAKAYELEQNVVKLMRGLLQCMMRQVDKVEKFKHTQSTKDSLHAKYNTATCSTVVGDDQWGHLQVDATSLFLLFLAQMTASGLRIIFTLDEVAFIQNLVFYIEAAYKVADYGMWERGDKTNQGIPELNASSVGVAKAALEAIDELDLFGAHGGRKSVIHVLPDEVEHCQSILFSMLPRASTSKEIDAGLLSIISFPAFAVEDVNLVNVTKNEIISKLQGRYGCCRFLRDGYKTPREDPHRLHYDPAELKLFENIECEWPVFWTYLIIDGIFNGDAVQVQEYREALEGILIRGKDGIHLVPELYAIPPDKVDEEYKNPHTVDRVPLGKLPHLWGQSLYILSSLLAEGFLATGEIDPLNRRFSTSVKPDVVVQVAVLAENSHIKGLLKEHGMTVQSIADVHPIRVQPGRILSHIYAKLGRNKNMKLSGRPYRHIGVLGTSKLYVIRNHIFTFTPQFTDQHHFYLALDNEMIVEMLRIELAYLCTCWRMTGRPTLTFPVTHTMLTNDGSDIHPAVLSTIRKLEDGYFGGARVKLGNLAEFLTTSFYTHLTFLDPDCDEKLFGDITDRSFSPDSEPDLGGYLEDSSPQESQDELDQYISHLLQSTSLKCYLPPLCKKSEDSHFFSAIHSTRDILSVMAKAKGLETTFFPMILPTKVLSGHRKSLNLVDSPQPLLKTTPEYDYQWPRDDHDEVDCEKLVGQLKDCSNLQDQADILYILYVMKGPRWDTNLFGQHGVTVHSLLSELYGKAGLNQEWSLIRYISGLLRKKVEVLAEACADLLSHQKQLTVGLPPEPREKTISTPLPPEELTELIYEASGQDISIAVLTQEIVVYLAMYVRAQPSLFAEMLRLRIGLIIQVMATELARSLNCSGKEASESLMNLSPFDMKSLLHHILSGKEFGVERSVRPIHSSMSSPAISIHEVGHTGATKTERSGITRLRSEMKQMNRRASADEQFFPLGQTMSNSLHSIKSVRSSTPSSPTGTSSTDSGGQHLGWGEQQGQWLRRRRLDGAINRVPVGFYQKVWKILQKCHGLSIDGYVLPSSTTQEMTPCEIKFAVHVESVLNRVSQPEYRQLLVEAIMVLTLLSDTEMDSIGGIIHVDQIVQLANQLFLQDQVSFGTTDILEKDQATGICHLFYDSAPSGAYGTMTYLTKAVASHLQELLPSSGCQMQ
UniProt Q8BVQ5: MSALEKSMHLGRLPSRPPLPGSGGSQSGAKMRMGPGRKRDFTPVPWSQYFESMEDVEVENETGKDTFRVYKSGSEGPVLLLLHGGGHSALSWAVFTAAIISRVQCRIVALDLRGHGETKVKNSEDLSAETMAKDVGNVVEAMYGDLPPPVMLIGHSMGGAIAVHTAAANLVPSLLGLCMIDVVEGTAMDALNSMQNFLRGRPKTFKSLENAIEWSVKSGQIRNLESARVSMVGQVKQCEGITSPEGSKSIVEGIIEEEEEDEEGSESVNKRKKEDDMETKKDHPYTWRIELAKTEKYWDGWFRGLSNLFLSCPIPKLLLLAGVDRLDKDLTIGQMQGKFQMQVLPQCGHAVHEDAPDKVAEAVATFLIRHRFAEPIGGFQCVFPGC

Compound: CN[C@@H]1C[C@H]2O[C@@](C)([C@@H]1OC)n1c3ccccc3c3c4c(c5c6ccccc6n2c5c31)C(=O)NC4 [staurosporine]
Assay: log2 fold change of tryptic peptide abundance, ligand vs vehicle (limited proteolysis) (log2 ratio); higher = more trypsin-susceptible (destabilized)
Settings: ligand concentration: 20 uM; sample: mouse liver crude lysate; replicate design: treated separately

Q: “UniProt Q8BZH4 (peptide sequence: GHMCYCCPEMVEYQK, peptide start residue: 389)” was tested. Which log2 fold change did it give?
A: 0.477

Q: With “UniProt Q8C163 (peptide sequence: KLEELKAK, peptide start residue: 39)” as the target, how does the log2 fold change read?
A: -0.224

Q: With “UniProt Q8C863 (peptide sequence: TTTWQRPTLESVR, peptide start residue: 344)” as the target, how does the log2 fold change read?
A: -0.123

Q: Which log2 fold change does the source give for “UniProt Q8BYK4 (peptide sequence: LANLLFTR, peptide start residue: 205)” here?
A: -0.146

Q: With “UniProt Q8C2S0 (peptide sequence: RFRWSGR, peptide start residue: 552)” as the target, how does the log2 fold change read?
A: -0.0779

Q: “UniProt Q8C6G1 (peptide sequence: ASELHNVR, peptide start residue: 14)” was tested. Which log2 fold change did it give?
A: -0.456

Q: How did the log2 fold change turn out when “UniProt Q8C5L3 (peptide sequence: GMSNNTPQLNR, peptide start residue: 88)” was run?
A: 0.129

Q: “UniProt Q8BZ21 (peptide sequence: YANPIGRPK, peptide start residue: 331)” was tested. Which log2 fold change did it give?
A: 0.46

Q: “UniProt Q8C147 (peptide sequence: AKLEEALLR, peptide start residue: 1363)” was tested. Which log2 fold change did it give?
A: -0.137

Q: For “UniProt Q8C9B9 (peptide sequence: EKPLDEPEAQGLESR, peptide start residue: 2109)”, which log2 fold change is on record?
A: -0.292

Q: For “UniProt Q8C8U0 (peptide sequence: KEASDGTDKAPTDSR, peptide start residue: 441)”, which log2 fold change is on record?
A: 2.21

Q: Which log2 fold change does the source give for “UniProt Q8BXL7 (peptide sequence: EGIEWMVK, peptide start residue: 178)” here?
A: -0.335

Q: For “UniProt Q8BWA8 (peptide sequence: TSDGWLEGVR, peptide start residue: 748)”, which log2 fold change is on record?
A: -0.459

Q: For “UniProt Q8C4B4 (peptide sequence: AATAGSQAGPGGLVAGKEEK, peptide start residue: 8)”, which log2 fold change is on record?
A: -0.122

Q: “UniProt Q8BVH9 (peptide sequence: NWDLFYKR, peptide start residue: 44)” was tested. Which log2 fold change did it give?
A: 0.235

Q: “UniProt Q8BXK9 (peptide sequence: ESNTAGIDIFSK, peptide start residue: 110)” was tested. Which log2 fold change did it give?
A: 0.167

Q: How did the log2 fold change turn out when “UniProt Q8C3X4 (peptide sequence: VFDIPSEECIKISAK, peptide start residue: 195)” was run?
A: -0.39

Q: For “UniProt Q8C5K5 (peptide sequence: IQNFLNEFK, peptide start residue: 185)”, which log2 fold change is on record?
A: -0.346

Q: With “UniProt Q8BXL9 (peptide sequence: GLDVQMETCRR, peptide start residue: 460)” as the target, how does the log2 fold change read?
A: -0.172

Q: Which log2 fold change does the source give for “UniProt Q8C0E2 (peptide sequence: TPGQLSDNNSRQ, peptide start residue: 325)” here?
A: 0.137

Q: With “UniProt Q8C166 (peptide sequence: NCSSPEFSK, peptide start residue: 51)” as the target, how does the log2 fold change read?
A: -0.451

Q: For “UniProt Q8BWG8 (peptide sequence: ACGVDYEVK, peptide start residue: 139)”, which log2 fold change is on record?
A: 0.114

Q: How did the log2 fold change turn out when “UniProt Q8BWL5 (peptide sequence: AILDKNTNQCK, peptide start residue: 87)” was run?
A: 0.269

Q: Which log2 fold change does the source give for “UniProt Q8C0V9 (peptide sequence: HLLQLLSNSHR, peptide start residue: 312)” here?
A: 0.106

Q: With “UniProt Q8BZI6 (peptide sequence: YCCFTPSGHR, peptide start residue: 166)” as the target, how does the log2 fold change read?
A: 0.297

Q: For “UniProt Q8C1D8 (peptide sequence: WNVEMESSR, peptide start residue: 715)”, which log2 fold change is on record?
A: 0.188

Q: For “UniProt Q8BYN3 (peptide sequence: VFVVGESYTVVQRPSLK, peptide start residue: 200)”, which log2 fold change is on record?
A: -0.12

Q: “UniProt Q8BWJ3 (peptide sequence: SLLHHILSGK, peptide start residue: 953)” was tested. Which log2 fold change did it give?
A: 0.699

Q: Which log2 fold change does the source give for “UniProt Q8BZH1 (peptide sequence: MRVNEYK, peptide start residue: 114)” here?
A: 0.151

Q: For “UniProt Q8BZQ7 (peptide sequence: QQLLVSLK, peptide start residue: 387)”, which log2 fold change is on record?
A: 0.55

Q: With “UniProt Q8C010 (peptide sequence: QIRGELSK, peptide start residue: 347)” as the target, how does the log2 fold change read?
A: -0.0866

Q: With “UniProt Q8BYI6 (peptide sequence: NENAQTPLVGR, peptide start residue: 167)” as the target, how does the log2 fold change read?
A: 0.171

Q: Which log2 fold change does the source give for “UniProt Q8C7U1 (peptide sequence: AQAQAQDAELAR, peptide start residue: 403)” here?
A: 0.471

Q: For “UniProt Q8C2K1 (peptide sequence: LLEEEEEK, peptide start residue: 462)”, which log2 fold change is on record?
A: 0.17

Q: Which log2 fold change does the source give for “UniProt Q8BVQ5 (peptide sequence: NSEDLSAETMAK, peptide start residue: 122)” here?
A: -0.5
